# Data reported in PubChem BioAssay AID540276 (National Center for Advancing Translational Sciences (NCATS), 2011).
# Screen size: about 300,000 compounds; about 5,400 (1.8%) were called active. Inconclusive results, whose numbers are uncertain, are shown with a selection of clear calls. Calls follow the shape of the full dose curve; tested in HEK293 cells. Potencies of inconclusive entries are doubtful fits and often do not repeat.
# Assay: qHTS for inhibitors of binding or entry into cells for Marburg Virus
# Conditions: Marburg virus pseudotyped entry inhibition, cell reporter; activity change, negative = inhibition: at 37.8 µM (top of the series) unless noted
# % is scaled to controls: 0 for no effect and ±100 for the full control effect; potency is read from the fitted curve at half-maximal effect.
SMILES,"activity change, negative = inhibition",Potency
O=C(Cn1ncc2c3ccccc3n(Cc3ccc(Cl)cc3)c2c1=O)NCCC1=CCCCC1,inactive: 17.6% [at 46.1 µM],
COc1cc2c(cc1OC)C(=O)CCC2,,"inconclusive: 0.126 µM [inhibitor, full curve, poor fit]"
COc1ccccc1C(CCN(Cc1ccccc1)C(C)=O)c1ccco1 (stereo unspecified),,"inconclusive: 25.1 µM [inhibitor, single point]"
COc1ccc(NC(=O)COC(=O)CNS(=O)(=O)c2ccc(C)cc2)c(OC)c1,,"inconclusive: 1 µM [inhibitor, single point]"
O=C(COc1ccccc1Cl)NCc1ccco1,,"inconclusive: 11.2 µM [activator, single point]"
COc1ccc(CCNc2cc(C)nc3c(-c4ccccc4OC)cnn23)cc1OC,,active: 11.2 µM
CN(CC(=O)Nc1cccc(F)c1)C(=O)c1cc(-c2ccco2)nc2ccccc12,,"inconclusive: 12.6 µM [inhibitor, single point]"
O=C(CCC(=O)c1cccs1)Nc1ccccc1F,,"inconclusive: 17.8 µM [activator, partial curve, poor fit]"
CC(=O)Nc1ccc(S(=O)(=O)N2CCN=C2SCc2ccccc2C)cc1,,"inconclusive: 35.5 µM [inhibitor, single point]"
CC(C)Oc1ccc(C(=O)N2CCC(c3nc4ccccc4o3)CC2)cc1,inactive: 10.2% [at 46.1 µM],
COc1ccccc1/C=C/C(=O)Nc1cccc(S(=O)(=O)N2CCOCC2)c1,inactive: -8.42%,
CCOC(=O)NC(=O)/C(C#N)=C(/C)N(C)C,inactive: -6.58% [at 46.1 µM],
COc1ccccc1NC(=O)c1cn(CCC#N)nc1-c1ccc(F)cc1,,"inconclusive: 2.24 µM [inhibitor, full curve, poor fit]"
N=c1n(CCCOc2ccccc2Cl)c2ccccc2n1CC(N)=O,,"inconclusive: 14.1 µM [inhibitor, partial curve, poor fit]"
CCc1ccc(C(C)NC(=O)C2CCCO2)cc1 (stereo unspecified),,"inconclusive: 35.5 µM [inhibitor, single point]"
CCOC(=O)CNC(=S)N(CCCN1CCCCCC1)Cc1cccs1,,"inconclusive: 20 µM [inhibitor, partial curve, poor fit]"
CC(O)C(O)C(O)C(O)/C=N/NC(=O)c1ccccc1 (stereo unspecified),inactive: 3.07% [at 46.1 µM],
O=c1cc(N2CCN(c3ccccc3Cl)CC2)[nH]c(=O)n1Cc1ccc(F)cc1,,"inconclusive: 1 µM [inhibitor, full curve, poor fit]"
CCc1ccc(OCCCOc2ccc(C=O)cc2)cc1,inactive: 0.0835%,
N=C1C(c2nc(-c3ccc(F)cc3)cs2)=C(O)CN1Cc1ccc(Cl)cc1,,"inconclusive: 23.1 µM [inhibitor, partial curve, poor fit]"
COc1ccc(Nc2ncc3c(n2)CC(c2ccc(C)cc2)CC3=O)cc1 (stereo unspecified),,"inconclusive: 23.1 µM [inhibitor, partial curve, poor fit]"
Cc1ccc(NC(=O)Cn2nnc(C(=O)Nc3ccc(C)c(C)c3)c2N)cc1,inactive: 18.5%,
CCS(=O)(=O)C(=C(Nc1ccc(OC)cc1)Nc1ccc(OC)cc1)S(=O)(=O)CC,inactive: 20.7%,

SMILES,"activity change, negative = inhibition",Potency
CC/C(=N\Nc1nncc2ccccc12)c1ccc(F)cc1,,"inconclusive: 3.16 µM [activator, single point]"
CCc1ccc(NC(=O)C(C)Oc2nnc(-c3cccs3)c(-c3cccs3)n2)cc1 (stereo unspecified),,"inconclusive: 12.6 µM [inhibitor, single point]"
Nc1nnc(Cc2cccc(Br)c2)s1,inactive: 7.37% [at 46.1 µM],
Cc1cnc(NC(=O)c2cc3c(s2)CCCC3)s1,,"inconclusive: 5.01 µM [inhibitor, partial curve, poor fit]"
COCC(=O)NNC(=O)c1ccccc1OC,inactive: 0.471% [at 46.1 µM],
Cc1ccsc1C(=O)NC(C)c1ccccc1 (stereo unspecified),inactive: -1.31% [at 46.1 µM],
CC(=O)Nc1ccc(CN2CCC(CO)(CCOc3ccccc3)CC2)cc1,,"inconclusive: 35.5 µM [inhibitor, single point]"
COc1ccccc1OC(=O)c1ccc2nsnc2c1,inactive: 23.2%,
COc1ccccc1NC(=O)Nc1ccc(S(=O)(=O)Nc2onc(C)c2C)cc1,,"inconclusive: 1.26 µM [activator, full curve, poor fit]"
COc1ccc(C(=O)N/C(=C\c2ccccc2)C(=O)NC(CC(C)C)C(=O)O)cc1 (stereo unspecified),,"inconclusive: 1.12 µM [activator, partial curve, poor fit]"
CCSc1nnc(NC(=O)CSc2nc3c(cc2C#N)CCCC3)s1,,"inconclusive: 9.2 µM [inhibitor, partial curve]"
Cc1cc(NC(=O)CN2C(=O)NC3(CCCCC3C)C2=O)no1 (stereo unspecified),,"inconclusive: 6.51 µM [inhibitor, single point]"
CCOc1ccc(N(CC(=O)NCc2ccccc2)C(=O)CCC(=O)Nc2nccs2)cc1,,"inconclusive: 1.26 µM [inhibitor, full curve, poor fit]"
COc1ccc(/C=C/c2ccc3c(Br)ccc(O)c3n2)cc1,,"inconclusive: 3.98 µM [activator, full curve]"
Cc1ccc(C)c(N2C(=O)CC(Cc3ccc(Cl)cc3)C2=O)c1 (stereo unspecified),inactive: -0.86%,
O=C1N/C(=C\c2ccc(O)cc2)C(O)=C1C=NCc1ccccc1,,"inconclusive: 3.55 µM [inhibitor, full curve]"
COc1cc(C(=S)N2CCOCC2)ccc1OS(=O)(=O)c1ccc(NC(C)=O)cc1,,"inconclusive: 23.1 µM [inhibitor, partial curve, poor fit]"
Cc1cc(OCC(O)CN2CCN(CCO)CC2)ccc1C(C)C (stereo unspecified),,inactive
C/C=C/c1ccc(OCC(=O)OCC(=O)NC2CC2)c(OC)c1,inactive: 9.32% [at 46.1 µM],
COc1ccc(-c2cn[nH]c2-c2ccc(OCc3ccccc3)cc2O)cc1,,"inconclusive: 35.5 µM [inhibitor, partial curve, poor fit]"
CCCC(=O)NCn1nnc(-c2ccc(Cl)cc2)n1,,"inconclusive: 1.26 µM [inhibitor, single point]"
COc1cccc(/C=C2\CC(C)Cc3c2nc2ccccc2c3C(=O)O)c1OC (stereo unspecified),inactive: -5.2% [at 46.1 µM],
Cc1cccc(COCC(CC(C)C)N2CCN(C(=O)c3ccc(C(C)(C)C)cc3)CCC2=O)c1 (stereo unspecified),,"inconclusive: 29.1 µM [inhibitor, single point]"

# Ordered by length of the SMILES (rising): some entries from above.
SMILES,"activity change, negative = inhibition",Potency
Nc1nnc(Cc2cccc(Br)c2)s1,inactive: 7.37% [at 46.1 µM],
CCCC(=O)NCn1nnc(-c2ccc(Cl)cc2)n1,,"inconclusive: 1.26 µM [inhibitor, single point]"
COc1cc(C(=S)N2CCOCC2)ccc1OS(=O)(=O)c1ccc(NC(C)=O)cc1,,"inconclusive: 23.1 µM [inhibitor, partial curve, poor fit]"
